The text below walks through data of paper doi:10.1101/2024.06.16.599208.

Amino acid sequences for entries named in this document (tags omitted). Residues count along the entry.
UniProt Q00839, 221-679: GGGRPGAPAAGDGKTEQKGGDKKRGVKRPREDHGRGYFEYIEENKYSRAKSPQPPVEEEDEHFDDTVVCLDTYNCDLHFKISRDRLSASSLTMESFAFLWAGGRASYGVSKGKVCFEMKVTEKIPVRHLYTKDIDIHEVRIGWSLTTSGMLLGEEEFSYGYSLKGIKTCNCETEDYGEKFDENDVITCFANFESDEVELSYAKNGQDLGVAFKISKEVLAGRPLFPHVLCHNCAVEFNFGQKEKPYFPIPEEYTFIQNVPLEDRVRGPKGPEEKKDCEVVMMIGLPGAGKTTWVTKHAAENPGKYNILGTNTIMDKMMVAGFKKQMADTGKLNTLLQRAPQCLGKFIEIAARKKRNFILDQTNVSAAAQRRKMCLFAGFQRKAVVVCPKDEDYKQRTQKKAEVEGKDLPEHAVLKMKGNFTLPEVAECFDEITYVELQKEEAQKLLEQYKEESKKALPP

The series has as its target SAF-A SPRNK domain (SPRY/PNK) WT (UniProt Q00839). In words: EMSA. The settings on record: residues 221-679. Background: Mobility shift assays separate free from complexed probe on a gel.

Construct, isoform or probe ends are uncertain for at least one entry. At least one verdict was read from the data and is not stated in words by the source.

For the sequence UUUUUUUUUUUUUUUUUUUU [oligoU20-DY681], the binding result is “binds”.
In the case of “UUUUUUUUUUUUUUUUUUUUUUUUUUUUUUUUUUUUUUUU [oligoU40-DY681]” it was “binds”.
